Data source: PubChem BioAssay AID504786 (Drosophila RNAi Screening Center, 2011)
The screen tested about 21,000 reagents; below is a random part of those that have a named target and a result. 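Primary screen; positive scores mean lost reporter signal, so the sign may be inverted from the usual convention.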 Names joined by + are all predicted targets of the reagent. Further read-outs or replicates are left out here. No sequences are given here.

Test: 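Fly genes required for HIF-dependent transcription when hypoxia is mimicked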 (primary screen)
System: Drosophila S2 cells with a stable HIF luciferase reporter
Reagents: long dsRNA against Drosophila genes, about 0.2 µg dsRNA per well of a 384-well plate
Duration: three days of knock-down, then 20 h of DFO before reading
Challenge: desferrioxamine (DFO) at 100 µM, an iron chelator that mimics hypoxia, for 20 h
Measured: 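HIF reporter luminescence in cells given 100 µM DFO for 20 h, using the mouse ldh-a hypoxia-response element, scored as per-plate z-scores; higher means greater loss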
Scale: z-score: higher = stronger loss of HIF reporter signal

CG13455 [DRSC10002]
- z-score, replicate 1: -0.2

CG33203 [DRSC14874]
- z-score, replicate 1: 0.6

CG33203 [DRSC14876]
- z-score, replicate 1: -0.5

CG33203 [DRSC14877]
- z-score, replicate 1: -0.4

CG14605 [DRSC12549]
- z-score, replicate 1: -0.1

Rad17 [DRSC16811]
- z-score, replicate 1: -0.5

Spps [DRSC15856]
- z-score, replicate 1: -0.3

vis + achi [DRSC07277]
- z-score, replicate 1: -0.2

Phlpp [DRSC02065]
- z-score, replicate 1: -0.3

CG17270 [DRSC15209]
- z-score, replicate 1: -0.3

l(2)34Fc [DRSC01910]
- z-score, replicate 1: 2.5

Manf [DRSC14091]
- z-score, replicate 1: -0.2

CG8834 [DRSC07283]
- z-score, replicate 1: -0.2

CG9485 [DRSC04557]
- z-score, replicate 1: 0.2

Ctl2 [DRSC14423]
- z-score, replicate 1: -0.3

noc [DRSC03580]
- z-score, replicate 1: -0.1

CG17110 [DRSC15173]
- z-score, replicate 1: -0.4

Eaf [DRSC05050]
- z-score, replicate 1: 0.9

Eaf [DRSC06052]
- z-score, replicate 1: -0.1

Jon25Bii [DRSC03114]
- z-score, replicate 1: -0.5

PGRP-SB2 [DRSC11092]
- z-score, replicate 1: -0.2

Csk [DRSC12861]
- z-score, replicate 1: 0.1

Csk [DRSC15223]
- z-score, replicate 1: -0.2

sax [DRSC07675]
- z-score, replicate 1: -0.4

Rad51D [DRSC06840]
- z-score, replicate 1: -0.3

Taf6 [DRSC11299]
- z-score, replicate 1: 0.7

Tpc2 [DRSC04322]
- z-score, replicate 1: -0.2

CG8299 [DRSC07139]
- z-score, replicate 1: -0.3

Next part (5 carried over from the part before).
sax [DRSC07675]
- z-score, replicate 1: -0.4

Rad51D [DRSC06840]
- z-score, replicate 1: -0.3

Taf6 [DRSC11299]
- z-score, replicate 1: 0.7

Tpc2 [DRSC04322]
- z-score, replicate 1: -0.2

CG8299 [DRSC07139]
- z-score, replicate 1: -0.3

Sf3b2 [DRSC00619]
- z-score, replicate 1: 6.6

hiw [DRSC20338]
- z-score, replicate 1: -0.5

hiw [DRSC20339]
- z-score, replicate 1: -0.2

CG10973 [DRSC09813]
- z-score, replicate 1: -0.2

Taf12L [DRSC00467]
- z-score, replicate 1: -0.2

CG1965 [DRSC12577]
- z-score, replicate 1: -0.2

CG3216 [DRSC04347]
- z-score, replicate 1: 0

GluRS-m [DRSC10431]
- z-score, replicate 1: -0.2

CG17261 [DRSC00498]
- z-score, replicate 1: -0.3

Caf1-180 [DRSC17807]
- z-score, replicate 1: -0.4

Ddc [DRSC03314]
- z-score, replicate 1: -0.3

eEF1gamma [DRSC16659]
- z-score, replicate 1: 4.5

CG12288 [DRSC02155]
- z-score, replicate 1: 1.6

CG42390 [DRSC15866]
- z-score, replicate 1: -0.3

rad50 [DRSC04523]
- z-score, replicate 1: -0.2

CG5866 [DRSC15900]
- z-score, replicate 1: -0.2

CG13502 [DRSC04147]
- z-score, replicate 1: -0.3

pll [DRSC17026]
- z-score, replicate 1: -0.3

regucalcin [DRSC18908]
- z-score, replicate 1: 0

regucalcin [DRSC20366]
- z-score, replicate 1: -0.3

beta4GalT7 [DRSC14385]
- z-score, replicate 1: -0.1

Rsph4a [DRSC04338]
- z-score, replicate 1: 0

CG42747 [DRSC10209]
- z-score, replicate 1: -0.3

CG42747 [DRSC10210]
- z-score, replicate 1: -0.3
